Measurements from patent US5118686A, “Phenylpyrimidones” (Smith Kline & French Laboratories Limited, priority 1989, dated 1992).
Some of these results come from one statement about several compounds together. Some compounds share one range, which may span the group rather than tell each member.

Biological target: calmodulin insensitive cyclic GMP phosphodiesterase (Homo sapiens, UniProt O76074)
Test: Phosphodiesterase activity: inhibition of calmodulin insensitive cyclic GMP phosphodiesterase
Assay type: biochemical
Details: procedure of European Patent Application No. 293063; read-out: IC50 (concentration of inhibitor required for 50% inhibition of enzyme activity)

IC50, 0.5 to 88 µM:
CCCOc1ccccc1-c1nc(NCC)cc(=O)[nH]1 [Example 8, 6-ethylamino-2-(2-propoxyphenyl)pyrimidin-4[3H]-one]
CCCOc1ccccc1-c1nc(O)cc(O)n1 [Example 6, 4,6-Dihydroxy-2-(2-propoxyphenyl)pyrimidine]
CCCOc1ccccc1-c1nc(OCC)cc(=O)[nH]1 [Example 23, 6-Ethoxy-2-(2-propoxyphenyl)pyrimidin-4(3H)-one]
CCCOc1ccccc1-c1nc(O)cc(CC)n1 [Example 18, 4-Ethyl-6-hydroxy-2-(2-propoxyphenyl)pyrimidine]
CCCOc1ccccc1-c1nc(O)cc(C#N)n1 [Example 16, 4-cyano-6-hydroxy-2-(2-propoxyphenyl)pyrimidine]
CCCOc1ccccc1-c1nc(N(CCO)CCO)cc(=O)[nH]1 [Example 24, 6-N,N-bis-(2-hydroxyethyl)amino-2-(2-propoxyphenyl)pyrimidin-4(3H)-one]
CCCOc1ccccc1-c1nc(N)cc(=O)[nH]1 [Example 1, 6-Amino-2-(2-propoxyphenyl)pyrimidin-4[3H]-one]
CCCOc1ccccc1-c1nc(-c2nn[nH]n2)cc(=O)[nH]1 [Example 17, 2-(2-Propoxyphenyl)-6-(1H-tetrazol-5-yl)pyrimid-4-(3H)-one]
CCCOc1ccccc1-c1nc(NC(=O)NC)cc(=O)[nH]1 [Example 5, 6-N'-methylureido-2-(2-propoxyphenyl)pyrimidin-4[3H]-one]
CCCOc1ccccc1-c1nc(O)cc(C(=O)NCC)n1 [Example 21, N-Ethyl 6-hydroxy-2-(2-propoxyphenyl)pyrimidine-4-carboxamide]
CCCOc1ccccc1-c1nc(O)cc(C(=O)OCC)n1 [Example 14, Ethyl 6-hydroxy-2-(2-propoxyphenyl)pyrimidine-4-carboxylate]
CCCOc1ccccc1-c1nc(O)cc(C(=O)NC)n1 [Example 20, N-Methyl 6-hydroxy-2-(2-propoxyphenyl)pyrimidine-4-carboxamide]
CCCOc1ccccc1-c1nc(NC(C)=O)cc(=O)[nH]1 [Example 2, 6-acetamido-2-(2-propoxyphenyl)pyrimidin-4[3H]-one]
CCCOc1ccccc1-c1nc(NCCO)cc(=O)[nH]1 [Example 10]
CCCOc1ccccc1-c1nc(O)cc(-c2ccccc2)n1 [Example 19, 4-Hydroxy-6-phenyl-2-(2-propoxyphenyl)pyrimidine]
CCCNc1cc(=O)[nH]c(-c2ccccc2OCCC)n1 [Example 9, 6-propylamino-2-(2-propoxyphenyl)pyrimidin-4[3H]-one]
CCCOc1ccccc1-c1nc(NC(=O)CC)cc(=O)[nH]1 [Example 3, 6-propionamido-2-(2-propoxyphenyl)pyrimidin-4[3H]-one]
CCCOc1ccccc1-c1nc(O)cc(C(=O)O)n1 [Example 13, 6-Hydroxy-2-(2-propoxyphenyl)pyrimidine-4-carboxylic acid]
CCCOc1ccccc1-c1nc(NCCCO)cc(=O)[nH]1 [Example 11, 6-(3-hydroxypropylamino)-2-(2-propoxyphenyl)pyrimidin 4[3H]-one]
CCCOc1ccccc1-c1nc(O)cc(Cl)n1 [Example 7, 4-Chloro-6-hydroxy-2-(2-propoxyphenyl)pyrimidine]
CCCOc1ccccc1-c1nc(O)cc(C(N)=O)n1 [Example 15, 6-Hydroxy-2-(2-propoxyphenyl)pyrimidine-4-carboxamide]
CCCOc1ccccc1-c1nc(C)cc(O)n1 [Example 12, 4-hydroxy-6-methyl-2-(2-propoxyphenyl)pyrimidine]
CCCOc1ccccc1-c1nc(NC(=O)CCC)cc(=O)[nH]1 [Example 4, 6-butyramido-2-(2-propoxyphenyl)pyrimidin-4[3H]-one]
CCCNC(=O)c1cc(O)nc(-c2ccccc2OCCC)n1 [Example 22, N-Propyl 6-hydroxy-2-(2-propoxyphenyl)pyrimidine-4-carboxamide]
